Measured values published in PubChem BioAssay AID504834 (National Center for Advancing Translational Sciences (NCATS), 2011).
Out of some 320,000 compounds screened, about 22,000 (6.9%) were called active. The shares of active, inactive and inconclusive entries below differ from those in the screen. The call rests on the fitted dose curve; in most records, active means well fitted inhibition curve with a large enough effect; inconclusive means small, poorly fitted or top-dose-only effect, or another doubt; inactive means no such curve, though single readings can be large or run the other way. A potency beside an inconclusive call is a rough fit, not a confirmed value.

assay: Primary qHTS for delayed death inhibitors of the malarial parasite plastid, 96 hour incubation; details: P. falciparum luciferase reporter growth; series mostly up to 28.7 µM
Method in brief: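 Compounds incubated with erythrocytes infected by luciferase-expressing P. falciparum (2% hematocrit, 0.05% parasitemia final) for 96 hours, 37 C in 5% CO2. Growth inhibition scored as decreased luciferase luminescence.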
Potency means the concentration at half of the fitted maximal effect.

SMILES | Potency
Cc1ccccc1OCCCn1c(CO)nc2ccccc21 | inconclusive: 1.47 µM [inhibitor, partial curve, poor fit]
CCN(CC)CCn1cnc2c1c(=O)n(CCOC(=O)c1cc(OC)c(OC)c(OC)c1)c(=O)n2C | inconclusive: 18.5 µM [inhibitor, single point]
COc1ccc(/C=N/n2c(-c3n[nH]c4c3CCC4)n[nH]c2=S)cc1 | inconclusive: 14.7 µM [inhibitor, single point]
COCCNC(=S)N1CCOCC1 | inactive
CC(Oc1cccc(Cl)c1)C(=O)Nc1ccccc1N1CCCC1 (stereo not given) | inconclusive: 11.7 µM [inhibitor, single point]
CC1(C(=O)NCc2ccc(Cl)c(Cl)c2)Oc2ccccc2NC1=O (stereo not given) | inconclusive: 14.7 µM [inhibitor, partial curve, poor fit]
Clc1ccc(-c2cn3c(n2)SCC3)cc1 | inconclusive: 0.586 µM [inhibitor, partial curve, poor fit]
CC(C)(C)C1c2[nH]c3ccccc3c2CCN1Cc1cccc(OCCO)c1 (stereo not given) | inconclusive: 7.38 µM [inhibitor, partial curve, poor fit]
O=C(c1ccc2c(c1)OCO2)C1CCCN(C(=O)Nc2ccc(F)cc2F)C1 (stereo not given) | inconclusive: 14.7 µM [inhibitor, single point]
Cc1ccc2nc(-c3ccccc3N)[nH]c2c1 | inactive
Cc1ccc(C)c(S(=O)(=O)N2CCN(c3ncccn3)CC2)c1 | inconclusive: 18.5 µM [inhibitor, single point]
Cn1c(Cc2cccs2)nnc1SCC(=O)Nc1ccccc1 | inconclusive: 18.5 µM [inhibitor, single point]
CC1C(=O)CCC1(C(=O)O)c1ccccc1 (stereo not given) | inconclusive: 2.62 µM [inhibitor, partial curve, poor fit]
COc1ccc(-c2nn(-c3ccccc3)cc2C(=O)NCC2CCCO2)cc1 (stereo not given) | inconclusive: 13.1 µM [inhibitor, single point]
CCC(C)NC(=O)CN1C(=O)c2cccc3cccc1c23 (stereo not given) | inconclusive: 9.28 µM [inhibitor, partial curve]
CC1=C(C(=O)Nc2cccc(F)c2)C(c2ccsc2)C2=C(CC(C)(C)CC2=O)N1 (stereo not given) | inconclusive: 1.17 µM [inhibitor, partial curve, poor fit]
CCCC[n+]1ccn(-c2nc3ccccc3nc2[N-]S(=O)(=O)c2cccs2)c1 | active: 5.86 µM
CSCC(=O)N1CCCC(CO)(Cc2ccccc2C)C1 (stereo not given) | inconclusive: 11.7 µM [inhibitor, partial curve, poor fit]
CCCc1nc(SCc2ccc(Cl)cc2Cl)n[nH]1 | inconclusive: 11.7 µM [inhibitor, partial curve, poor fit]
CCC1CCCCN1CCCNC(=O)c1c(O)nc2ccccn2c1=O (stereo not given) | inconclusive: 18.5 µM [inhibitor, single point]
CCOC(=O)c1nc2nc(-c3cccs3)cc(C(F)(F)F)n2n1 | active: 8.28 µM
O=C1OCCC1Sc1nnc(-c2ccco2)n1-c1ccccc1 (stereo not given) | inconclusive: 0.37 µM [inhibitor, partial curve, poor fit]
COc1ccc(C)cc1S(=O)(=O)N(C)CC(=O)Nc1ccc2c(c1)OCO2 | inconclusive: 5.22 µM [inhibitor, partial curve]
O=C(NCc1ccccc1)c1cnsn1 | active: 1.31 µM

SMILES | Potency
Cc1nc2sc(C(c3ccc(Cl)cc3)N3CCN(c4ccccc4F)CC3)c(O)n2n1 (stereo not given) | inconclusive: 8.28 µM [inhibitor, partial curve]
CN(C)CCN=Cc1c(O)n(-c2cccc3ccccc23)c(=O)[nH]c1=O | active: 10.4 µM
CCc1ccc2c(c1)C(NC(C)=O)C(=O)N2CC (stereo not given) | inconclusive: 13.1 µM [inhibitor, single point]
CC(O)c1nc2ccccc2n1Cc1ccccc1 (stereo not given) | inconclusive: 0.165 µM [inhibitor, full curve]
CCN(C(C)=O)c1cccc(-c2ccnc3c(C#N)cnn23)c1 | inconclusive: 12 µM [inhibitor, partial curve, poor fit]
COc1cccc(/C=N/NC(=O)C(C)n2nnc3ccccc32)c1 (stereo not given) | inactive
CC(C)(C)OC(=O)CNC(=O)c1nc[nH]c1C(=O)NCC(=O)OC(C)(C)C | inactive
COc1ccccc1CNC(=O)COC(=O)C1CCN(S(=O)(=O)c2ccccc2)CC1 | inactive
Cc1cc(C)c(S(=O)(=O)N2CCCC(C(=O)NCc3ccncc3)C2)c(C)c1 (stereo not given) | inactive
Cc1cc(C)n(Cc2ccc(NC(=O)c3ccc(COc4ccccc4Br)cc3)cc2)n1 | inconclusive: 10.4 µM [inhibitor, single point]
COc1ccccc1CNC(=O)C1CCC(CNc2c(N3CCCCC3)c(=O)c2=O)CC1 (stereo not given) | inconclusive: 9.28 µM [inhibitor, partial curve]
O=C(Nc1cccc(NC(=O)c2cccc([N+](=O)[O-])c2)n1)c1cccc([N+](=O)[O-])c1 | inconclusive: 18.5 µM [inhibitor, single point]
CC(Cl)C(=O)NN=C(c1ccccc1)c1ccccc1 (stereo not given) | inactive
CC(=O)N(CN1C(=O)CCC1=O)c1ccc(Cl)c(Cl)c1 | inconclusive: 18.5 µM [inhibitor, single point]
CC(C)(C)C(=O)O/N=C1/C(=O)N(c2ccccc2)c2ccccc21 | inconclusive: 4.15 µM [inhibitor, partial curve, poor fit]
COc1cccc(CN2CC(C(=O)N3CCN(c4ccc(Cl)cc4)CC3)CCC2=O)c1 (stereo not given) | inconclusive: 3.29 µM [inhibitor, partial curve, poor fit]
CCCCC1CCC(C(=O)N(CC(C)C)c2c(N)n(Cc3ccccc3)c(=O)[nH]c2=O)CC1 (stereo not given) | active: 10.4 µM
CCCCS(=O)CC(O)COc1ccc(C(C)(C)C)cc1 (stereo not given) | inconclusive: 18.5 µM [inhibitor, single point]
Cc1cc2nc(NC3=NCN(Cc4ccc5c(c4)OCO5)CN3)nc(C)c2cc1C | inconclusive: 3.7 µM [inhibitor, full curve]
CN(CCc1cnn(C)c1)Cc1cn(C)nc1-c1ccc2c(c1)OCCO2 | inactive
Cc1cc(N2CCOCC2)nc(NCc2ccccc2)n1 | inactive
Cc1ccc(S(=O)(=O)N2CCC(C(=O)OCC(=O)N(C)c3ccccc3)CC2)cc1C | inactive
O=C(NC1CCCc2ccccc21)c1cccc(Br)c1 (stereo not given) | inconclusive: 18.5 µM [inhibitor, single point]
CCOC(=O)CNC(=O)CSc1ccc(-c2nc3ccccc3[nH]2)cn1 | inactive

SMILES | Potency
CN(C)c1ccc(P(=O)(OC2CCCCC2)C(Nc2ccccc2)c2cccnc2)cc1 (stereo not given) | active: 2.94 µM
O=C(CN1CCCC1)N/N=C/c1c(O)ccc2ccccc12 | inconclusive: 11.7 µM [inhibitor, partial curve, poor fit]
COc1ccccc1NS(=O)(=O)c1ccc2c(c1)n(C)c(=O)n2C | inconclusive: 4.15 µM [inhibitor, full curve, poor fit]
COc1ccc(/C=C/C(=O)NCC(=O)N/N=C/c2ccc(OC)cc2)cc1 | inconclusive: 0.928 µM [inhibitor, partial curve, poor fit]
CCOC(=O)Cn1nc(-c2ccc(F)cc2)oc1=O | inactive
NC(=O)c1cc[n+](Cc2ccccc2Cl)cc1 | inactive
COC(=O)C(CC(C)C)N1CCC(=O)c2ccccc2S1(=O)=O (stereo not given) | inconclusive: 14.7 µM [inhibitor, single point]
CC1CCN(S(=O)(=O)c2cccc(C(=O)Nc3ccccc3)c2)CC1 | active: 2.62 µM
O=[N+]([O-])c1ccccc1/C=N/N1CCN(c2ccncc2S(=O)(=O)N2CCCCC2)CC1 | active: 2.33 µM
COc1ccc(C(=O)N2CCCC(CCC(=O)N3CCN(c4ccccn4)CC3)C2)cc1 (stereo not given) | inactive
CCn1cc(CN2CCC(n3nccc3NC(=O)CCCc3ccccc3)CC2)cn1 | inactive
COc1ccc(NC(=O)C2(N(C(=O)Cn3nnnc3N)c3ccc(OC)cc3)CCCCC2)cc1 | inactive
COCC1CCN(C(=O)c2cc(COc3ccc(-n4cncn4)cc3)on2)C1 (stereo not given) | inconclusive: 16.5 µM [inhibitor, single point]
COc1ccccc1NC(=O)C1=C(C)Nc2nnnn2C1c1cccc(C)c1 (stereo not given) | inconclusive: 20.8 µM [inhibitor, single point]
CN(CC(=O)Nc1ccccc1Br)C(=O)CNC(=O)C1CCCCC1 | inconclusive: 13.1 µM [inhibitor, single point]
CCCCOCCCNC(=O)C1c2ccccc2Oc2ccccc21 | inconclusive: 10.4 µM [inhibitor, single point]
CC1(C)CC(=O)C/C(=N\NC(=S)NCc2ccccc2)C1 | inconclusive: 10.4 µM [inhibitor, single point]
O=C(C1CCC(=O)N(C2CCCC2)C1)N1CCN(Cc2cccc(Cl)c2)CC1 (stereo not given) | inactive
Cc1ccnc(NC(=O)c2ccc(NC(=O)CC3SC(N4CCCC4)=NC3=O)cc2)c1 (stereo not given) | inconclusive: 2.94 µM [inhibitor, partial curve]
CCN1CCN(c2ccc(N)cc2C)CC1 | inconclusive: 16.5 µM [inhibitor, single point]
O=C1c2cccc(OCC(=O)N3N=C(c4cccs4)CC3c3ccc(F)cc3)c2CCN1Cc1ccccc1 (stereo not given) | inconclusive: 4.15 µM [inhibitor, single point]
CC(=O)c1cccc(NC(=O)CN(C)S(=O)(=O)c2cccc3nsnc23)c1 | inconclusive: 18.5 µM [inhibitor, single point]

Some of these compounds in order of SMILES length, smallest number first:
SMILES | Potency
Cc1ccc2nc(-c3ccccc3N)[nH]c2c1 | inactive
CCN(C(C)=O)c1cccc(-c2ccnc3c(C#N)cnn23)c1 | inconclusive: 12 µM [inhibitor, partial curve, poor fit]
COc1ccc(-c2nn(-c3ccccc3)cc2C(=O)NCC2CCCO2)cc1 (stereo not given) | inconclusive: 13.1 µM [inhibitor, single point]

Molecules above with a nitro group on carbon, in the order listed:
SMILES | Potency
O=C(Nc1cccc(NC(=O)c2cccc([N+](=O)[O-])c2)n1)c1cccc([N+](=O)[O-])c1 | inconclusive: 18.5 µM [inhibitor, single point]
O=[N+]([O-])c1ccccc1/C=N/N1CCN(c2ccncc2S(=O)(=O)N2CCCCC2)CC1 | active: 2.33 µM
